Data taken from PubChem BioAssay AID220 (DTP/NCI, 2004).
The list does not hold the whole screen: it gathers tests that were run many times, whatever their T/C, doses with no T/C, and many T/C values between a quarter and a half above the control. Other doses and runs of a compound stand elsewhere. T/C gives the treated animals as a percentage of the vehicle group. Schedule codes are those of the source, read here as Q, the interval in days (D) or hours (H), X, the number of doses. Some T/C values carry the count of animals alive at the toxicity check (mostly the fifth day); where none is given, no animal had died by that day. Some doses have a count of surviving animals in place of a T/C: the source files T/C as zero there, which appears to mark a toxic dose or a test without result, not a measured value. Counts of survivors are from the toxicity check (mostly the fifth day) where no day follows; animals may have died later. Some entries were tested several times; their values stand side by side, smallest first.

Tested on: CD8F1 mice, subcutaneous mammary adenocarcinoma, T/C%
Experiment: NCI In Vivo Anticancer Drug Screen. Data for tumor model Mammary Adenocarcinoma CD8F1 (subcutaneous) in CD8F1
Conditions: higher T/C = larger tumour
In short: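 Antitumor activity is assessed in transplantable-tumor mice by comparing the treated group with a vehicle-treated control group. Survival or tumor size serves as the measure, reported as T divided by C.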

[1] = T/C endpoint: median tumor weight change, dose: 1000.0 mg/kg/injection, schedule: Q01DX001 (ip), vehicle: saline with Tween-80
[2] = T/C endpoint: median tumor weight change, dose: 2000.0 mg/kg/injection, schedule: Q01DX001 (ip), vehicle: saline with Tween-80

CCCCC[C@H](O)/C=C/[C@@H]1[C@@H](C/C=C\CCCC(=O)O)[C@@H](O)C[C@H]1O
survivor count (T/C endpoint: mean tumor weight, dose: 640.0 mg/kg/injection, schedule: Q01DX001 (iv), vehicle: saline): 5 of 10

Cc1cc(O)c(N=Nc2ccc(C(=O)O)cc2)cc1C
survivor count (T/C endpoint: median tumor weight (est.), dose: 800.0 mg/kg/injection, schedule: Q07DX005 (ip), vehicle: suspension in saline): 0 of 10 on day 30

COC1=C(OC)C(=O)C(Sc2ccc3ccccc3c2)=CC1=O
T/C (T/C endpoint: median tumor weight (est.), dose: 100.0 mg/kg/injection, schedule: Q07DX005 (ip), vehicle: saline with Tween-80, evaluated on day 30): 130 % of control
survivor count (T/C endpoint: median tumor weight (est.), dose: 400.0 mg/kg/injection, schedule: Q07DX005 (ip), vehicle: saline with Tween-80): 4 of 10 on day 30

CC(=O)N(C)O
survivor count [1]: 5 of 10 on day 32
survivor count [2]: 0 of 10 on day 32

CN(Cc1cnc2nc(N)nc(N)c2n1)c1ccc(C(=O)N[C@@H](CCC(=O)O)C(=O)O)cc1
survivor count (T/C endpoint: mean tumor weight, dose: 8.0 mg/kg/injection, schedule: Q01DX009 (ip), vehicle: saline): 6 of 10
survivor count (T/C endpoint: mean tumor weight, dose: 250.0 mg/kg/injection, schedule: Q07DX003 (ip), vehicle: sodium bicarbonate): 5 of 10
T/C (T/C endpoint: median tumor weight (est.), dose: 1.25 mg/kg/injection, schedule: Q07DX005 (ip), vehicle: sodium bicarbonate, evaluated on day 30): 147 % of control
T/C (T/C endpoint: median tumor weight (est.), dose: 20.0 mg/kg/injection, schedule: Q07DX005 (ip), vehicle: sodium bicarbonate, evaluated on day 30): 125 % of control
survivor count (T/C endpoint: median tumor weight (est.), dose: 160.0 mg/kg/injection, schedule: Q07DX005 (ip), vehicle: sodium bicarbonate): 1 of 10 on day 30

C[n+]1c(/C=N/NC(N)=S)ccc2ccccc21
survivor count (T/C endpoint: median tumor weight change, dose: 500.0 mg/kg/injection, schedule: Q01DX001 (ip), vehicle: saline with Tween-80): 1 of 10 on day 29
survivor count [1]: 0 of 10 on day 29
survivor count [2]: 1 of 5 on day 29

CC1CN1P1(N2CC2C)=NP(N2CC2C)(N2CC2C)=NP(N2CC2C)(N2CC2C)=N1 (stereo not drawn)
T/C (T/C endpoint: mean tumor weight, dose: 12.5 mg/kg/injection, schedule: Q07DX005 (ip), vehicle: saline, evaluated on day 37): 143 % of control
survivor count (T/C endpoint: mean tumor weight, dose: 200.0 mg/kg/injection, schedule: Q07DX005 (ip), vehicle: saline): 1 of 6

C[C@@]12C(=O)OC(=O)[C@]1(C)[C@H]1CC[C@@H]2O1
T/C (T/C endpoint: median tumor weight change, dose: 0.62 mg/kg/injection, schedule: Q01DX001 (ip), vehicle: Klucel (hydroxypropylcellulose) (HPC), evaluated on day 36): 130 % of control
T/C (T/C endpoint: median tumor weight change, dose: 2.5 mg/kg/injection, schedule: Q01DX001 (ip), vehicle: Klucel (hydroxypropylcellulose) (HPC), evaluated on day 36): 139 % of control [9 of 10 alive on day 36]
survivor count (T/C endpoint: median tumor weight change, dose: 5.0 mg/kg/injection, schedule: Q01DX001 (ip), vehicle: Klucel (hydroxypropylcellulose) (HPC)): 6 of 10 on day 36

COc1ccc2[nH]c3c(c2c1)CCNC3CC(C)CCC=C(C)C (stereo not drawn)
T/C (T/C endpoint: median tumor weight change, dose: 62.5 mg/kg/injection, schedule: Q01DX001 (ip), vehicle: Klucel (hydroxypropylcellulose) (HPC), evaluated on day 29): 147 % of control [9 of 10 alive on day 29]
survivor count (T/C endpoint: median tumor weight change, dose: 62.5 mg/kg/injection, schedule: Q01DX001 (ip), vehicle: Klucel (hydroxypropylcellulose) (HPC)): 0 of 10 on day 25
survivor count (T/C endpoint: median tumor weight change, dose: 125.0 mg/kg/injection, schedule: Q01DX001 (ip), vehicle: Klucel (hydroxypropylcellulose) (HPC)): 5 of 10 on day 25
survivor count (T/C endpoint: median tumor weight change, dose: 200.0 mg/kg/injection, schedule: Q01DX001 (ip), vehicle: Klucel (hydroxypropylcellulose) (HPC)): 4 of 10 on day 33
survivor count (T/C endpoint: median tumor weight change, dose: 250.0 mg/kg/injection, schedule: Q01DX001 (ip), vehicle: Klucel (hydroxypropylcellulose) (HPC)): 5 of 10 on day 25 and 5 of 10 on day 29
survivor count (T/C endpoint: median tumor weight change, dose: 400.0 mg/kg/injection, schedule: Q01DX001 (ip), vehicle: Klucel (hydroxypropylcellulose) (HPC)): 0 of 10 on day 33
survivor count (T/C endpoint: median tumor weight change, dose: 500.0 mg/kg/injection, schedule: Q01DX001 (ip), vehicle: Klucel (hydroxypropylcellulose) (HPC)): 0 of 10 on day 29 and 1 of 10 on day 25
survivor count (T/C endpoint: median tumor weight change, dose: 1000.0 mg/kg/injection, schedule: Q01DX001 (ip), vehicle: Klucel (hydroxypropylcellulose) (HPC)): 1 of 10 on day 25
survivor count (T/C endpoint: median tumor weight change, dose: 2000.0 mg/kg/injection, schedule: Q01DX001 (ip), vehicle: Klucel (hydroxypropylcellulose) (HPC)): 0 of 10 on day 25
